The values below are quoted from earlier work in publication PMC7796259, “Evaluation of Ionic Liquids and Ionic Liquids Active Pharmaceutical Ingredients Inhibition in Elastase Enzyme Activity” (Molecules, 2021).

The target of the data set is carboxylesterase. The conditions noted are these: read-out: EC50 for carboxylesterase; compared with elastase values; cited from earlier work.

As to `CC(C)(C)CC(C)(C)c1ccc(OCCOCC[N+](C)(C)Cc2ccccc2)cc1` [Benzethonium chloride], the concentration for a half-maximal effect (EC50) was 123.7 ± 0.009 µM.

The term EC50 denotes the concentration giving half of the maximal effect.
